The source of these data is publication PMC12390655 (Viruses, 2025).

Sequences of proteins named here, by UniProt entry; tags and fusion partners are left off. Residues count along the entry.
UniProt Q05322, residues 11-237: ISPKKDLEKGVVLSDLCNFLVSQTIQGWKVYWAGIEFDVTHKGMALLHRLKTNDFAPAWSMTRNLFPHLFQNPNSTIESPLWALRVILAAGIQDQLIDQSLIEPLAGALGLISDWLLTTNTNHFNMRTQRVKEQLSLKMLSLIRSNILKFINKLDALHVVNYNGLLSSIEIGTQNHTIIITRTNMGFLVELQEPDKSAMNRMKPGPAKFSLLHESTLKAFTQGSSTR

Experiment [1] addresses T1, bipartite NLS (bpNLS) from the nucleoplasmin.
T1 sequence (peptide): KRPAATKKAGQAKKKK
As to the kind of experiment: fluorescence polarisation; both purified. (In general: Fluorescence polarisation rises when a labelled molecule tumbles more slowly, as on binding a larger partner.)

For experiment [2], the target named is T2, monopartite NLS peptide (mpNLS) from the SV40 large T antigen (SV40).
T2 sequence (peptide, N-terminal fluorescein label (fluorescein-Ahx-)): STPPKKKRKVE
Description: fluorescence polarisation; both purified.

Results are given in words; binding and its absence hold for the method and conditions named.

Turning to “Ebola VP24 aa 11–237 (from UniProt Q05322 11-237) (domain or fragment)”, the binding entry in experiment [1] and in experiment [2] was “no binding” each time.
